Results as given in article PMC7819943, “Rice protein-binding microarrays: a tool to detect cis-acting elements near promoter regions in rice”.
Some of the results follow.

Amino acid sequences for entries named in this document (tags omitted).
UniProt Q0JBA9, entry or part of it: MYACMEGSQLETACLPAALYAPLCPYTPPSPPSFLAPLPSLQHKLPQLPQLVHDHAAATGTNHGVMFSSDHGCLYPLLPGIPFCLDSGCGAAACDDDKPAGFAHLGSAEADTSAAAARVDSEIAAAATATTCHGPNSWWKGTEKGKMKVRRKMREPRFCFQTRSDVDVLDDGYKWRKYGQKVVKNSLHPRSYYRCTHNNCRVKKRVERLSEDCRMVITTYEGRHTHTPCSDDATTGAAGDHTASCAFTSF

target: OsWRKY34 (Oryza sativa, UniProt Q0JBA9 1-250); assay: protein-binding microarray (RPBM); PBS, 2% BSA, 51.3 ng/ul salmon testes DNA, 50 uM zinc acetate, 200 nM TF, 25 C, 1 h; high values mean tight binding; settings: protein: recombinant; tags: N-terminal polyhistidine and DsRed monomer fusion (pET32a); label: CyDye5-dUTP incorporated in the synthesized complementary strand; 3' TTTTT single-stranded linker to array surface; dsDNA, one strand shown
Outline: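 Binding signal is defined as the fluorescence intensity of each feature in arbitrary units, read on an Axon 4000B scanner. Transcription factors with N-terminal polyhistidine and DsRed fusions came from E. coli BL21-CodonPlus and were purified on Ni–NTA. They were incubated at 200 nM for 1 h at 25 °C on a custom Agilent array that had been made double-stranded with Cy5-dUTP, with 50 µM zinc acetate present, and the array was washed.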

Row | Sequence | binding signal
1 | GGATCCGTATGCTTTCGCACCCATGCTCGCGGCGTTTACTCGGAGTCACCTAGTGCAG | 9280 fluorescence intensity (a.u.)
2 | CATCCGCCGCTCCTACTCTGGGCCCATGCTTCTGGCCTGACGGAGTCACCTAGTGCAG | 10100 fluorescence intensity (a.u.)
3 | GTGAGTGTTTTATCTTTGTGGCTTACTTTGTCTGGGTCGCCGGAGTCACCTAGTGCAG | 8860 fluorescence intensity (a.u.)
4 | AGTTGCTTTCGGTCCTGTTTGCTCCCTCGCACTCTCTCGACGGAGTCACCTAGTGCAG | 11000 fluorescence intensity (a.u.)
5 | TTAATATACCACTACTTACCTTTTCATTGCTTTTTCTAAACGGAGTCACCTAGTGCAG | 9070 fluorescence intensity (a.u.)
6 | ATATTTAAAAAAGTCAACGGCGTCAAACATTTTGAGATAGCGGAGTCACCTAGTGCAG | 9320 fluorescence intensity (a.u.)
7 | TAAAATTTTACTCTAGCTTTCAACTCACTTTATTTTATTACGGAGTCACCTAGTGCAG | 9940 fluorescence intensity (a.u.)
8 | CTATTATCTCCAGGGTGGGGTGGGGCCCATACGGCCAGGACGGAGTCACCTAGTGCAG | 10400 fluorescence intensity (a.u.)
9 | GGTCCTATCTTTCTCACACACATATAGCCTGTGTGTACGTCGGAGTCACCTAGTGCAG | 8170 fluorescence intensity (a.u.)
10 | TATTTCTGTCCAGTCGCCCGCTCGTATTATTTTGGAGCAACGGAGTCACCTAGTGCAG | 10100 fluorescence intensity (a.u.)
11 | TAAATTTTTTCAAACTTGGCATTCTTCTCTCACGACTAAACGGAGTCACCTAGTGCAG | 8180 fluorescence intensity (a.u.)
12 | GCTCGCTGGATCTCTCCTCTTTCTCTCTCGCACCCTCTCCCGGAGTCACCTAGTGCAG | 8030 fluorescence intensity (a.u.)
13 | GAAGCCCTGGTTCGAGCTCTGCTCTGCTCTGTGTTAACCACGGAGTCACCTAGTGCAG | 8070 fluorescence intensity (a.u.)
14 | ATCCATCCATACAATGTGCATTTTTTTTGTTAGTGTTCTACGGAGTCACCTAGTGCAG | 9950 fluorescence intensity (a.u.)
15 | CCATTTGTTTCTCTCTGGTGCAGTACTGCAGTGTACACAACGGAGTCACCTAGTGCAG | 8750 fluorescence intensity (a.u.)
16 | TCCTCGATTGATCCGTTTCTTTATATACACACAGTACAACCGGAGTCACCTAGTGCAG | 9270 fluorescence intensity (a.u.)
17 | GTTCTACAACTTTGTTTTTTATGATTTCTTCATTTCAAATCGGAGTCACCTAGTGCAG | 8480 fluorescence intensity (a.u.)
18 | AGTAACATCAATTTTATATGTAATCTTTTTTTTATTATTACGGAGTCACCTAGTGCAG | 8230 fluorescence intensity (a.u.)
19 | CTACTGCTCCTACGCGCACGCCCCAACCCATCGGCGAATTCGGAGTCACCTAGTGCAG | 10400 fluorescence intensity (a.u.)
20 | GTATTTCCATTTCCTCTCTCTTCGCGGAGACTTATCGTCTCGGAGTCACCTAGTGCAG | 10600 fluorescence intensity (a.u.)
21 | TGATATCTTTTTCTTTAATGACTTTCCGTGTTTTCAACGTCGGAGTCACCTAGTGCAG | 8090 fluorescence intensity (a.u.)

Row | Sequence | binding signal
22 | GATTATATTTGTTATACATTTTAGACCACCCTAATTTTCTCGGAGTCACCTAGTGCAG | 9820 fluorescence intensity (a.u.)
23 | AGGCCACACTCAACCTTTTTAACAAGCTAATCTCATCGTACGGAGTCACCTAGTGCAG | 8090 fluorescence intensity (a.u.)
24 | GGGGCCATCTTTTTTGGGGTTAAATTTGGTCCAGAGTTGACGGAGTCACCTAGTGCAG | 11200 fluorescence intensity (a.u.)
25 | CCTATCACCACCCACCTACTGCGCGTTTCTCCAGAGGCCTCGGAGTCACCTAGTGCAG | 8300 fluorescence intensity (a.u.)
26 | GGTTGAGGAGATTGCCCTCGGTTTTGTTAATGTTGCAAATCGGAGTCACCTAGTGCAG | 8370 fluorescence intensity (a.u.)
27 | TTTCCTTCGGCGTTTTTTCATCCATGACCTGGTACATGACCGGAGTCACCTAGTGCAG | 9980 fluorescence intensity (a.u.)
28 | GACGACCAACCCCTGGCTGCTACGCGATCCGCAATAATAACGGAGTCACCTAGTGCAG | 8420 fluorescence intensity (a.u.)
29 | TATCCTCGGTCCAGCCGTCTCTTCTCCCAAGTTCTGAAGTCGGAGTCACCTAGTGCAG | 11400 fluorescence intensity (a.u.)
30 | CTCCCATCCTCCATCGCACTCACTCCTCACCTCGATCCATCGGAGTCACCTAGTGCAG | 8790 fluorescence intensity (a.u.)
31 | CTCGCTGGAATCGTGGGTGTGGGGTGGGTTCTGAGGATTCCGGAGTCACCTAGTGCAG | 16000 fluorescence intensity (a.u.)
32 | ATTTCCTAACACATGTGTGTTGCTCCACTCTGTTTTTTTTCGGAGTCACCTAGTGCAG | 9150 fluorescence intensity (a.u.)
33 | ACGACGCTCTCACGCTGGTGTCATGTAGCTTTTTTTTTTCCGGAGTCACCTAGTGCAG | 13300 fluorescence intensity (a.u.)
34 | GTCGTCTTCTACCTCCATATGCTCTGCTGCCTCTTCCATTCGGAGTCACCTAGTGCAG | 11200 fluorescence intensity (a.u.)
35 | CGGTATTTCGGTATATAGCAGTCTTTTTTTTTAAAAAAATCGGAGTCACCTAGTGCAG | 9640 fluorescence intensity (a.u.)
36 | CCCATCCACCAGCTCACAATGTCATGTCACTATGCATCTCCGGAGTCACCTAGTGCAG | 9370 fluorescence intensity (a.u.)
37 | CTTCTCCACCGTCTCCATGGCTGTCCTGTCCGGCCCCTGGCGGAGTCACCTAGTGCAG | 8880 fluorescence intensity (a.u.)
38 | GATCTCATGTGATTTGCTGTTGCACTCGGCGGCTATCTTTCGGAGTCACCTAGTGCAG | 8240 fluorescence intensity (a.u.)
39 | GTCTTATTCAAAAAATTTTGGAATTATTATTTATTTTGTTCGGAGTCACCTAGTGCAG | 8180 fluorescence intensity (a.u.)
40 | AGCCACCATTACCACCTATTCTGTTTGTGCAAAACCAACCCGGAGTCACCTAGTGCAG | 9600 fluorescence intensity (a.u.)
41 | CCATTCACGCGCGGAGACTTCGCTCCTCCTCCTCGGCGTCCGGAGTCACCTAGTGCAG | 8660 fluorescence intensity (a.u.)
42 | CATGTCTTCGCTGTCTCGGGCGCTCGCCATCTTCCCGACCCGGAGTCACCTAGTGCAG | 11700 fluorescence intensity (a.u.)

An excerpt of these results, field by field:
GGATCCGTATGCTTTCGCACCCATGCTCGCGGCGTTTACTCGGAGTCACCTAGTGCAG
  binding signal: 9280 fluorescence intensity (a.u.)
GTATTTCCATTTCCTCTCTCTTCGCGGAGACTTATCGTCTCGGAGTCACCTAGTGCAG
  binding signal: 10600 fluorescence intensity (a.u.)
